According to paper PMC4005679, “In vitro assembly and activity of an archaeal CRISPR-Cas type I-A Cascade interference complex” (Nucleic Acids Research, 2014):

Biological target: T1, Csa5 (recombinant, soluble) (Thermoproteus tenax) (UniProt G4RJZ0)
T1 sequence: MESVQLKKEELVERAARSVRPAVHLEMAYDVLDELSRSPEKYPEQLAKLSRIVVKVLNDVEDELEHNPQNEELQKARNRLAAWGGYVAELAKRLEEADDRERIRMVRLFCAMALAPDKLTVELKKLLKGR
Assay: SEC; six co-refolded Cascade subunits, incubated 30 min at 65°C, Superdex 200 10/300; fractions TCA-precipitated and analysed by SDS-PAGE; both purified

Substance: Cas3′′ (recombinant, refolded) (Thermoproteus tenax)
- binding: binds

Substance: Cas3′ (recombinant, refolded) (Thermoproteus tenax)
- binding: binds

No constants are given. Whether binding was seen depends on the method and setting. A result given as binding can be weak or reduced; the word gives no strength.
